From patent publication US8691944
These are yes or no findings as the source states them, for the method shown. Some binding calls cover weakened binding; strength is not graded here.

By UniProt entry, the sequences of proteins in these tests, tags left out. Residues count along the entry.
UniProt P01127, residues 82-190: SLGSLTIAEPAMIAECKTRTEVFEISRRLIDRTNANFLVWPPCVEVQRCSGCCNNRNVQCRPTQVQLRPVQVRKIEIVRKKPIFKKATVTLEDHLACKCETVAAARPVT
UniProt P09038, residues 143-288: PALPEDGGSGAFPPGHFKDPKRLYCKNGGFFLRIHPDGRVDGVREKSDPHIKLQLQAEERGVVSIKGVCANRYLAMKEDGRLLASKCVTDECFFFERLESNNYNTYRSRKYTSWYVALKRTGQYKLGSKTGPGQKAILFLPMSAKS
UniProt P01137, residues 279-390: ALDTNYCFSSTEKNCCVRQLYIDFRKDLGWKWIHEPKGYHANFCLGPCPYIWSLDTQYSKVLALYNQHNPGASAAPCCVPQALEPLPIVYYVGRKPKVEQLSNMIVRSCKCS

Columns and labels:
Assay in all cases: peptide binding assay
[1] = target: platelet-derived growth factor-BB (PDGF-BB) (UniProt P01127)
[2] = target: basic fibroblast growth factor (bFGF, FGF-2) (UniProt P09038)
[3] = target: transforming growth factor-β1 (TGF-β1) (UniProt P01137)

Measured: binding

QPSHISKYILRWRPKNSVGRWKEAT [peptide 1 (…)]
binds: all assays above

QLISIQQYGHQEVTRFDFTTTSTST [peptide 2 (…)]
binds: all assays above

NGQTPIQRTIKPDVRSYTITGLQPGT [peptide 3 (…)]
binds: all assays above

QPSVGQQMIFEEHGFRRTTPPTTAT [peptide 4 (…)]
binds: all assays above
